The other results are listed elsewhere or left out.
Compound: Cc1cc(ccc1-c1ccccc1)C(=O)N1CCCN(CC1)C(=O)CCl [compound 10]
Assay: probe-labelled cysteine peptide fold change vs DMSO (competition) (log2 fold change); higher = less target engagement (more negative = stronger competition)
Details: THP-1, incubation time: 4 h
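Note: competitive profiling in live THP-1 cells: cysteine peptides tagged with an iodoacetamide desthiobiotin (IA-DTB) probe, intensity after compound treatment relative to DMSO-treated cells.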

| Target | probe-labelled cysteine peptide fold change (10 µM) | probe-labelled cysteine peptide fold change (50 µM) |
| --- | --- | --- |
| MKI67_P46013_1479_ELFQTPVCTDKPTTHEK (UniProt P46013) | -0.249 | -0.26 |
| MIEN1_Q9BRT3_33_IVVEYCEPCGFEATYLELASAVK (UniProt Q9BRT3) | 0.092 | -0.0126 |
| MICAL3_Q7RTP6_1760_SCPSTPSSGATVDSGK (UniProt Q7RTP6) | -0.0357 | -0.153 |
| MKI67_P46013_261_ENVLQYCR (UniProt P46013) | -0.303 | -0.455 |
| MIS18BP1_Q6P0N0_528_ATTTYDFDCDNLELK (UniProt Q6P0N0) | -0.102 | 0.238 |
| MKNK1_Q9BUB5_101_EVETLYQCQGNK (UniProt Q9BUB5) | 0.00543 | 0.169 |
| MIB1_Q86YT6_62_CSGAYDLR (UniProt Q86YT6) | 0.072 | -0.0658 |
| MPP2_Q14168_256_CHFDYDPAR (UniProt Q14168) | -0.0441 | 0.141 |
| MPI_P34949_309_FIDVPTLCEMLSYTPSSSK (UniProt P34949) | 0.0812 | -0.142 |
| MMAA_Q8IVH4_100_ACLAEAITLVESTHSR (UniProt Q8IVH4) | -0.0292 | 0.0665 |
| MPI_P34949_289_GDCVECMACSDNTVR (UniProt P34949) | 0.0622 | -0.0489 |
| MORC3_Q14149_307_ITFGFNCR (UniProt Q14149) | -0.379 | -0.0989 |
| MORC2_Q9Y6X9_502_AMEIPTTIQCDLCLK (UniProt Q9Y6X9) | 0.185 | -0.0469 |
| MMS19_Q96T76_331_REVFQTASERVEAEGLAALHSLTACLSR (UniProt Q96T76) | -0.452 | 0.0397 |
| MPP6_Q9NZW5_222_CHFDYNPYNDNLIPCK (UniProt Q9NZW5) | 0.21 | -0.0199 |
| MIS18A_Q9NYP9_231_LSFATCK (UniProt Q9NYP9) | -0.214 | -0.293 |
| MICAL1_Q8TDZ2_711_LCVNGHFFHR (UniProt Q8TDZ2) | -0.068 | -0.0359 |
| MRPL44_Q9H9J2_276_QSGGTTALPLYFVGLYCDK (UniProt Q9H9J2) | 0.0161 | -0.0942 |
| MRPS16_Q9Y3D3_79_HWIGCGAHLSK (UniProt Q9Y3D3) | -0.276 | 0.121 |
| MNAT1_P51948_46+49_GAGNCPECGTPLR (UniProt P51948) | -0.041 | -0.123 |
| MRPL11_Q9Y3B7_50_GVSINQFCK (UniProt Q9Y3B7) | -0.00407 | 0.015 |
| MLKL_Q8NB16_437_RQQEPLGEDCPSELR (UniProt Q8NB16) | -0.131 | 0.119 |

| Target | probe-labelled cysteine peptide fold change (10 µM) | probe-labelled cysteine peptide fold change (50 µM) |
| --- | --- | --- |
| MORC2_Q9Y6X9_127_KEDTMTCLFLSR (UniProt Q9Y6X9) | 0.138 | 0.165 |
| MLH1_P40692_494_EMTAACTPR (UniProt P40692) | -0.182 | -0.12 |
| MICAL3_Q7RTP6_25_FVQATTCK (UniProt Q7RTP6) | -0.00228 | 0.178 |
| MRM3_Q9HC36_235_SAAGAGCSK (UniProt Q9HC36) | -0.109 | -0.000687 |
| MIS12_Q9H081_133_YKTELCTK (UniProt Q9H081) | 0.136 | 0.127 |
| MKI67_P46013_1285_ADVEGELLACR (UniProt P46013) | -0.247 | -0.0599 |
| MOB4_Q9Y3A3_51_ADCSNIDK (UniProt Q9Y3A3) | -0.0815 | 0.00286 |
| MRPL37_Q9BZE1_268_NHVLETFYPISPIIDLHECNIYDVK (UniProt Q9BZE1) | -0.0744 | -0.045 |
| MKI67_P46013_643_SQHDILQMICSK (UniProt P46013) | -0.612 | -2.28 |
| MORC3_Q14149_797+800_AECSQCSNNESK (UniProt Q14149) | 0.154 | -0.173 |
| MNDA_P41218_61_FQGVACLDK (UniProt P41218) | 0.0762 | 0.133 |
| MLLT10_P55197_140_TCYICDEQGR (UniProt P55197) | -0.419 | -0.305 |
| MPP5_Q8N3R9_366_AHFDYDPSDDPYVPCR (UniProt Q8N3R9) | 0.0892 | -0.463 |
| MOB4_Q9Y3A3_92_LQSECHPDTCTQMTATEQWIFLCAAHK (UniProt Q9Y3A3) | 0.0414 | 0.244 |
| MRPL44_Q9H9J2_96_TAFVNSCYIK (UniProt Q9H9J2) | -0.0364 | -0.21 |
| MICAL3_Q7RTP6_97_CLIIGAGPCGLR (UniProt Q7RTP6) | -0.0996 | 0.264 |
| MITD1_Q8WV92_226+233_FSLGYCDFDLRPCHETTVDIFHK (UniProt Q8WV92) | -0.136 | -0.305 |
| MRPL58_Q14197_82_LTISYCR (UniProt Q14197) | 0.00862 | -0.355 |
| MRPL37_Q9BZE1_104_DQACYIFHHR (UniProt Q9BZE1) | 0.0327 | -0.253 |
| MLEC_Q14165_206_VCALYIMAGTVDDVPK (UniProt Q14165) | 0.0709 | 0.132 |
| MRPL53_Q96EL3_49_STNLNCSVIADVR (UniProt Q96EL3) | 0.164 | 0.0554 |
| MIS18A_Q9NYP9_85_AQLEEEAAAAEERPLVFLCSGCR (UniProt Q9NYP9) | 0.00435 | -0.0262 |

Given as tab-separated lines: entries from further up
Target	probe-labelled cysteine peptide fold change (10 µM)	probe-labelled cysteine peptide fold change (50 µM)
MNDA_P41218_61_FQGVACLDK (UniProt P41218)	0.0762	0.133
MLLT10_P55197_140_TCYICDEQGR (UniProt P55197)	-0.419	-0.305
MPP5_Q8N3R9_366_AHFDYDPSDDPYVPCR (UniProt Q8N3R9)	0.0892	-0.463
MOB4_Q9Y3A3_92_LQSECHPDTCTQMTATEQWIFLCAAHK (UniProt Q9Y3A3)	0.0414	0.244
MRPL44_Q9H9J2_96_TAFVNSCYIK (UniProt Q9H9J2)	-0.0364	-0.21

Next entries follow.

| Target | probe-labelled cysteine peptide fold change (10 µM) | probe-labelled cysteine peptide fold change (50 µM) |
| --- | --- | --- |
| MICAL2_O94851_552_SGLALCAIIHR (UniProt O94851) | 0.0476 | 0.0623 |
| MIF4GD_A9UHW6_150_EEEVDCLVLQLHR (UniProt A9UHW6) | 0.255 | 0.733 |
| MORC3_Q14149_413+416_RPDQTWVQCDACLK (UniProt Q14149) | 0.0843 | -0.211 |
| MIF_P14174_57_ASVPDGFLSELTQQLAQATGKPPQYIAVHVVPDQLMAFGGSSEPCALCSLHSIGK (UniProt P14174) | 0.0281 | 0.0556 |
| MIS18BP1_Q6P0N0_870_HPLECLPGLIQDK (UniProt Q6P0N0) | 0.0139 | 0.121 |
| MKI67_P46013_3229_CAENPK (UniProt P46013) | -0.441 | -0.0742 |
| MICAL2_O94851_1059_PHFIHCK (UniProt O94851) | -0.142 | -0.506 |
| MRPS12_O15235_64_GVVLCTFTR (UniProt O15235) | 0.00519 | -0.316 |
| MRC2_Q9UBG0_1234_TTSCDTK (UniProt Q9UBG0) | -0.27 | -0.499 |
| MRPL24_Q96A35_190_TYVPCLK (UniProt Q96A35) | -0.203 | 0.0437 |
| MKRN1_Q9UHC7_69_YFMHGVCK (UniProt Q9UHC7) | 0.144 | -0.259 |
| MMS19_Q96T76_750_ELLELSCCHSCPFSSTAAAK (UniProt Q96T76) | -0.103 | -1.11 |
| MILR1_Q7Z6M3_110_AQVTSCSK (UniProt Q7Z6M3) | -0.255 | -0.888 |
| MNDA_P41218_61_KFQGVACLDK (UniProt P41218) | 0.0878 | -0.0793 |
| MMP14_P50281_574_RLLYCQR (UniProt P50281) | -0.276 | -0.518 |
| MRPL37_Q9BZE1_203_ICVQNSTFSATWNR (UniProt Q9BZE1) | -0.0553 | -0.0108 |
| MMADHC_Q9H3L0_52_AFSTAGSSGSDESHVAAAPPDICSR (UniProt Q9H3L0) | -0.291 | -0.319 |
| MIF4GD_A9UHW6_150_LAQPDSLSKEEEVDCLVLQLHR (UniProt A9UHW6) | 0.105 | -0.279 |
| MLLT1_Q03111_42_GPEQCDIQHFVEK (UniProt Q03111) | -0.0669 | 0.316 |
| MLH1_P40692_77_LIQIQDNGTGIRKEDLDIVCER (UniProt P40692) | -0.0936 | -0.274 |
| MMP14_P50281_127_WQHNEITFCIQNYTPK (UniProt P50281) | 0.0208 | 0.0803 |
| MMS19_Q96T76_331_VEAEGLAALHSLTACLSR (UniProt Q96T76) | 0.123 | -0.044 |

| Target | probe-labelled cysteine peptide fold change (10 µM) | probe-labelled cysteine peptide fold change (50 µM) |
| --- | --- | --- |
| MORC3_Q14149_717_QCHMFTDQIK (UniProt Q14149) | 0.0619 | -0.0733 |
| MKNK1_Q9BUB5_219_DLKPENILCESPEK (UniProt Q9BUB5) | -0.226 | -0.477 |
| MICALL1_Q8N3F8_194_CSSTLLPGAYENGPEEGTFVCAEHCAR (UniProt Q8N3F8) | -0.0852 | -1.04 |
| MIS18A_Q9NYP9_107_RPLGDSLSWVASQEDTNCILLR (UniProt Q9NYP9) | 0.065 | -0.042 |
| MKNK2_Q9HBH9_136_EVEMLYQCQGHR (UniProt Q9HBH9) | 0.326 | 0.731 |
| MORC3_Q14149_15_LSALCPK (UniProt Q14149) | -0.27 | -1.37 |
| MOCS3_O95396_179_YDVVADCSDNVPTR (UniProt O95396) | -0.0297 | 0.178 |
| MINK1_Q8N4C8_269_FIDFIDTCLIK (UniProt Q8N4C8) | -0.175 | 0.104 |
| MMADHC_Q9H3L0_261_HLGFSVDDLGCCK (UniProt Q9H3L0) | -0.3 | -1.27 |
| MRPL14_Q6P1L8_90_ALIVGHCMPGPR (UniProt Q6P1L8) | -0.313 | -0.357 |
| MRPL3_P09001_78_LCPLKDEPWPIHPWEPGSFR (UniProt P09001) | -0.483 | -0.0486 |
| MON2_Q7Z3U7_212_SVSTLKPCAK (UniProt Q7Z3U7) | -0.164 | -0.244 |
| MORC3_Q14149_787_QCSALQHVK (UniProt Q14149) | -0.202 | -0.0601 |
| MORC3_Q14149_349_ANNMGVGVVGIIECNFLKPTHNK (UniProt Q14149) | -0.0131 | -0.285 |
| MICAL2_O94851_411_QAHQLLVALVGDSLLEPFWPMGTGCAR (UniProt O94851) | -0.293 | 0.312 |
| MLH1_P40692_77_KEDLDIVCER (UniProt P40692) | -0.0728 | 0.206 |
| MRC2_Q9UBG0_187_IYGSEEDLCALPYHEVYTIQGNSHGKPCTIPFK (UniProt Q9UBG0) | -0.0343 | -0.784 |
| MMADHC_Q9H3L0_148_VECAIQTCPELLRK (UniProt Q9H3L0) | -0.33 | -0.718 |
| MKRN2_Q9H000_216_ICMLTFEHEMEK (UniProt Q9H000) | 0.0222 | -0.285 |
| MMS19_Q96T76_331_EVFQTASERVEAEGLAALHSLTACLSR (UniProt Q96T76) | 0.0802 | -0.418 |
